Measured values reported in patent US5538712A, “Cyclopentadienylcarbonyl 99MTC complexes, process for their production as well as their use in diagnostics” (Institut Fur Diagnostikforschung GmbH/an der Freien …, priority 1990, dated 1996).

Assay: In vivo SPECT study of cerebral blood flow in rabbits
Design: species or system rabbits (New Zealander)
Conditions: rabbit SPECT; HM-PAO 59 MBq, 8 minutes p.i.; cytectrene 14 MBq, 15 minutes p.i.
Method: In an in vivo study on rabbits (New Zealander, breeding by Schering AG Berlin, approximately 4 kg, male), the cerebral blood flow of commercially available HM-PAO was compared with the N-methyl-piperidin-4-ol-cytectrenecarboxylic acid ester (produced analogously to example 6).
The study was made with a SPECT camera of Apex 409 type.
After nembutal anesthesia, the animal was intravenously administered 1 ml of an isotonic, aqueous, sterile solution of ^99m Tc-HMPAO or said cytectrene derivative.
The recording technique and the results are described by the following table.

Compound	static: [(σ cts/pixel)(μcts/pixel)^-1 100] [%]
C/C(=N\O)C(C)NCC(C)(C)CNC(C)/C(C)=N/O (centres unmarked) [HM-PAO, hexamethyl-propylenamine oxime, reference compound]	2
cyclopentadienylcarboxylic acid-(N-methyl-piperidinol)-4-ester-^99m technetium-tricarbonyl complex	1.4
